Reference: patent US6500428B1, “Antibodies to a lymphocyte surface receptor that binds CAML and methods of use thereof” (St. Jude Children's Research Hospital, priority 1997, dated 2002)
Entries after “also recorded” stand apart in the source; their conditions may differ. At least one compound was matched to its structure with a doubt left.

Biological target: T1, TACI-1 (Homo sapiens, UniProt O14836)
T1 sequence (O14836 1-293): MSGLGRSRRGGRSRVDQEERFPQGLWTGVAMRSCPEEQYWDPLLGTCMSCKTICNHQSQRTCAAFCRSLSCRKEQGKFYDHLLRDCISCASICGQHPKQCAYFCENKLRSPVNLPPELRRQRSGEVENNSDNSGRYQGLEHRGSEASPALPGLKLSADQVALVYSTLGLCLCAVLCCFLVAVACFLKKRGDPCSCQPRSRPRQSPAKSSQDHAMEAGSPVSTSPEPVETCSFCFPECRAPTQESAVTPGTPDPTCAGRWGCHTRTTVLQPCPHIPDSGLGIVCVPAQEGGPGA
Test: NF-AT-driven secreted alkaline phosphatase reporter in TAg Jurkat T cells transfected with TACI-1
Format: cell-based
Design: expressed in transfected cells; host or cells: TAg Jurkat T cells, plasmid pBJ5-TACI-1
Conditions: antibody-cross linked TACI-1 in TAg Jurkat T cells; CsA 100 ng/ml, FK506 500 pg/ml; EGTA increasing concentrations; CAML(1-146) co-transfected
Method: FIG. 4. TACI-1 is a signaling protein that functions in the activation of NF-AT-specific transcription. FIG. 4A depicts the activation of an NF-AT-driven secreted alkaline phosphatase reporter. TAg Jurkat T cells, co-transfected with the SXNFAT reporter [Bram et al., Mol. Cell. Biol., 13:4760-4769 (1993)] and the expression plasmid pBJ5 [Takebe, Y, et al., Mol. Cell. Biol., 8:466-472 (1988)] containing either TACI-1-encoding cDNA (solid triangles) or nothing (circles), were treated with 50 ng/ml PMA and the indicated amounts of ionomycin in the presence (closed symbols) and absence (open symbols) of magnetic beads coated with immunoaffinity-purified anti-TACI-1 polyclonal antibodies. […] NF-AT activation was determined in TAg Jurkat T cells co-transfected with SXNFAT and pBJ5 (−TACI-1, left) or pBJ5-TACI-1 (+TACI-1, right), and treated with the indicated combinations of PMA (50 ng/ml), ionomycin (2 μM), CsA (100 ng/ml) and FK506 (500 pg/ml) in the presence of anti-TACI-1 antibody-coated beads (‘NS’, not stimulated). […] NF-AT activation was measured in the presence of EGTA in Jurkat T cells over expressing TACI-1. […] AP-1 activation was measured in TAg Jurkat T cells, co-transfected with a mouse metallothionein AP-1-SEAP reporter [Bram et al., 1991, supra] and pBJ5 containing no insert (−TACI-1, left) or TACI-1 cDNA (+TACI-1, right). […]

With `C=CC[C@@H]1/C=C(\C)C[C@H](C)C[C@H](OC)[C@H]2O[C@@](O)(C(=O)C(=O)N3CCCC[C@H]3C(=O)O[C@H](/C(C)=C/[C@@H]3CC[C@@H](O)[C@H](OC)C3)[C@H](C)[C@@H](O)CC1=O)[C@H](C)C[C@@H]2OC` [FK506] the “effect on TACI-1-mediated NF-AT activation” value was “loss of NF-AT activity; also recorded: blocked”.
